This test in a line: qHTS Assay for Modulators of Lamin A Splicing. Conditions: HeLa LMNA splicing GFP/RFP minigene ratio, 48 h. In short, it runs like this:
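Read-out is the ratio of GFP to DsRed2 object intensity, acquired by 488 nm laser-scanning cytometry on HeLa lamin A-EGFP minigene reporter cells. Compound incubation 48 hrs at 37 °C in Opti-MEM with 2% FBS; DMSO 0.5% final.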

The mark [1] stands for this setting: measured here: GFP splicing reporter channel.
Where [2] appears, read: measured here: RFP viability control channel.

Structures are written as SMILES. The list shows a part of the results. Shown are side measurements of this screen, not its main read-out; they come without a call. The list favours compounds with an active or inconclusive main result. Potencies come from curve fits of mixed quality, noted in brackets.

On to `Cc1ccc(N2CCCCn3c2nc2c3c(=O)[nH]c(=O)n2C)cc1`, for which the AC50 is 2.82 µM [rising, single point] under setting [1] and 15.8 µM [rising, single point] under setting [2].
As for `O=C(CSc1cc(Cl)ccc1Cl)NC1CCCc2ccccc21` (stereo not given), the AC50 under setting [1] was 5.01 µM [rising, partial curve].
As for `CS(=O)(=O)N1CCCC(c2nc(-c3ccc(S(=O)(=O)NCc4ccccc4)cc3)no2)C1` (stereo not given), the AC50 is 3.98 µM [rising, full curve] under setting [1] and 3.16 µM [rising, full curve] under setting [2].
Turning to `COC(=O)c1c(-c2ccc(F)cc2)noc1N`, under setting [2], the AC50 was 22.4 µM [rising, single point].
With `O=C(c1cccs1)N1CCN(Cc2ccccc2[N+](=O)[O-])CC1`, the AC50 under setting [1] is 7.08 µM [rising, full curve, poor fit] and the AC50 under setting [2] was 1.26 µM [rising, partial curve, poor fit].
As for `O=C(NCc1ccco1)c1cc([N+](=O)[O-])cc([N+](=O)[O-])c1`, the AC50 under setting [2] was 35.5 µM [rising, single point].
`O=C(COc1ccc(Cl)cc1)Nc1nc(-c2ccc(S(=O)(=O)N3CCOCC3)cc2)cs1`: under setting [2], the AC50 was 31.6 µM [rising, single point].
With `COc1ccc(C(=O)On2c(-c3ccc(Br)cc3)nc3ccccc3c2=O)cc1`, the AC50 under setting [2] was 31.6 µM [rising, single point].
With `Cc1csc(NC(=O)CSc2nnc(-c3ccoc3C)n2CCc2ccccc2)n1`, the AC50 reads like this: under setting [1], 35.5 µM [rising, single point]; under setting [2], 31.6 µM [rising, single point].
`CC(C)NC(=S)N/N=C/c1cc(Br)ccc1O`: the AC50 runs as follows: under setting [1], 14.1 µM [rising, single point]; under setting [2], 22.4 µM [rising, partial curve].
`COc1ccc(CN2CN=C(Nc3nc4ccccc4s3)NC2)cc1`: the AC50 under setting [1] was 0.02 µM [falling, partial curve, poor fit].
With `O=C(c1ccc(Cl)cc1)N1CCC(O)(CSc2ccc(Cl)cc2Cl)CC1`, the AC50 by setting is: under setting [1], 35.5 µM [falling, single point]; under setting [2], 35.5 µM [falling, single point].
With `NS(=O)(=O)c1cccc(NC(=O)COC(=O)c2cc(-c3ccc(Cl)cc3)nc3ccccc23)c1`, under setting [1], the AC50 was 7.08 µM [falling, partial curve, poor fit].
`O=C(c1c(F)cccc1F)N1CCC(n2nnc3cc(C(F)(F)F)ccc32)CC1`: the AC50 was 7.08 µM [falling, single point] under setting [1] and 2.82 µM [falling, single point] under setting [2].
For `C=CCN1C(=O)C(Cc2ccc(SC(F)F)cc2)SC1=Nc1ccc(C(=O)O)cc1` (stereo not given), the concentration at half-maximal activity (AC50) under setting [2] was 35.5 µM [rising, partial curve, poor fit].
On to `O=C(NCc1cccs1)c1cc2c(s1)-c1ccccc1OC2`, for which the concentration at half-maximal activity (AC50) reads like this: under setting [1], 15.8 µM [rising, single point]; under setting [2], 22.4 µM [rising, single point].
For the molecule `COc1ccc(NC(=O)C2CCN(S(=O)(=O)c3cccc4cccnc34)CC2)cc1`, under setting [2], the AC50 was 8.91 µM [rising, partial curve].
For `CCOC(=O)C(NC(=O)Nc1ccc(Cl)cn1)(Oc1ccc(F)cc1)C(F)(F)F` (stereo not given), the AC50 under setting [1] was 35.5 µM [falling, single point].
With `Cc1ccc[n+](CC(=O)Nc2cc(C(F)(F)F)ccc2N2CCOCC2)c1`, the AC50 reads like this: under setting [1], 8.91 µM [rising, partial curve]; under setting [2], 10 µM [rising, partial curve].
Turning to `COc1ccc(-c2nc(CCNC(=O)c3ccco3)cs2)cc1OC`, the AC50 under setting [2] was 7.94 µM [rising, single point].
`O=C(N/N=C/c1ccc2c(c1)OCO2)C(=O)Nc1ccc2ccccc2c1`: under setting [1], the AC50 was 0.0794 µM [rising, full curve].
Take `C=CCN1C(=O)NC(c2ccc(OC)cc2)(C(F)(F)F)S/C1=C(\C#N)c1nnc(N2CCOCC2)n1-c1ccccc1` (stereo not given): the AC50 under setting [2] is 12.6 µM [rising, partial curve].
In the case of `O=C(c1cc2nc(-c3ccco3)cc(C(F)(F)F)n2n1)N1CCCCCC1`, the half-maximal activity concentration (AC50) is, setting by setting: under setting [1], 5.01 µM [rising, full curve, poor fit]; under setting [2], 10 µM [rising, partial curve].
As for `CC(C)Nc1nnc(SC(C)C(=O)NCc2ccc3c(c2)OCO3)s1` (stereo not given), the AC50 under setting [2] is 35.5 µM [falling, partial curve, poor fit].
As to `CCOc1ccccc1NC(=O)C(=O)N/N=C/c1cc(Br)ccc1O`, the AC50 under setting [2] is 17.8 µM [falling, partial curve, poor fit].
As to `COc1ccc(C(=O)/C=C/Nc2ccc(S(=O)(=O)Nc3cccc(C(C)=O)c3)cc2)cc1`, the concentration at half-maximal activity (AC50) under setting [2] was 11.2 µM [rising, partial curve, poor fit].
Consider `CCOC(=O)c1ccc(NC(=O)C(=O)NCCc2ccc(OC)cc2)cc1`, for which the AC50 is, setting by setting: under setting [1], 6.31 µM [falling, partial curve]; under setting [2], 2.24 µM [falling, partial curve, poor fit].
For `COc1cccc(-c2nc(Nc3ccncc3)c3ccccc3n2)c1`, the AC50 was 17.8 µM [falling, partial curve] under setting [1] and 3.55 µM [falling, partial curve] under setting [2].
Consider `CN(C)CC[C@H](c1ccc(Br)cc1)c1ccccn1`, for which the AC50 under setting [1] is 0.0562 µM [falling, single point] and the AC50 under setting [2] is 0.0631 µM [falling, full curve, poor fit].
Consider `O=C(Nc1ccccc1N1CCOCC1)c1cccc(NS(=O)(=O)c2ccc(F)c(F)c2)c1`, for which the concentration at half-maximal activity (AC50) under setting [2] was 35.5 µM [rising, partial curve, poor fit].
Consider `COC(=O)c1cc(=O)c(O)c2c(O)c(O)ccc2c1`, for which the AC50 by setting is: under setting [1], 25.1 µM [falling, partial curve]; under setting [2], 35.5 µM [falling, single point].
As for `O=C(CCc1nnc(CCCCc2ccccc2)o1)N1CCC(N2CCCC2)CC1`, the AC50 under setting [1] was 3.16 µM [rising, partial curve].
On to `CCOC(=O)/C(=C\c1ccc(OC(F)F)cc1)C1=Nn2c(nnc2-c2ccc(Cl)cc2)SC1`, for which the concentration at half-maximal activity (AC50) runs as follows: under setting [1], 6.31 µM [falling, single point]; under setting [2], 6.31 µM [falling, single point].
In the case of `Cn1c(CN2CCOCC2)nc2cc(NC(=O)c3ccc(F)cc3)ccc21`, the AC50 under setting [2] is 31.6 µM [rising, single point].
Same read-out and setting: the figure for `Cc1ccc(C(=O)NNC(=O)CSc2n[nH]c(-c3cccnc3)n2)cc1` is 3.98 µM [rising, single point].
`Cc1ccc(-c2nc(C(=O)Nc3cccc(C#N)c3)c3n2CCCCC3)cc1`: under setting [1], the concentration at half-maximal activity (AC50) is 0.00891 µM [rising, full curve, poor fit].
Regarding `NC(=O)c1ccsc1NC(=O)c1ccc(S(=O)(=O)N2CCCc3ccccc32)cc1`, the AC50 under setting [2] was 0.708 µM [rising, full curve].
As for `Cc1noc2ncnc(Sc3c(Cl)cccc3Cl)c12`, the AC50 reads like this: under setting [1], 10 µM [falling, partial curve, poor fit]; under setting [2], 12.6 µM [falling, partial curve].
Turning to `NC(=O)/C(=C/c1ccc2c(c1)OCO2)NC(=O)c1ccco1`, the AC50 under setting [2] was 0.708 µM [falling, full curve, poor fit].
Consider `Cc1cccc(Cn2c(NCCO)nc3c2c(=O)n(C)c(=O)n3C)c1`, for which the AC50 under setting [2] is 7.94 µM [rising, partial curve].
On to `Cn1nc([N+](=O)[O-])c(C(C#N)c2ccccn2)c(Cl)c1=O` (stereo not given), for which the AC50 under setting [2] is 14.1 µM [rising, partial curve].
For the molecule `CC(=O)c1c(C(C)=O)c(C)n(Cc2ccc(Cl)cc2)c1C`, the AC50 was 1.41 µM [rising, partial curve] under setting [1] and 14.1 µM [rising, partial curve] under setting [2].
With `CCCCCn1c(Br)nc2c1c(=O)n(CC(N)=O)c(=O)n2C`, under setting [2], the AC50 is 5.01 µM [rising, partial curve].
Take `CN1N=C(C(C)(C)C)CSC1=Nc1ccccc1`: the AC50 under setting [1] is 3.98 µM [rising, partial curve].
The same measure, in the same setting: the value for `O=C(Nc1ccc(F)cc1)C1CCCO1` (stereo not given) was 0.0316 µM [rising, full curve, poor fit].
As for `COc1ccc(CCNC(=O)c2cc3sccc3n2C)cc1OC`, the AC50 under setting [1] was 5.01 µM [rising, partial curve] and the AC50 under setting [2] was 15.8 µM [rising, partial curve].
`O=C(O)c1cc(=O)[nH]c2c(Cl)cccc12`: the AC50 under setting [1] is 0.447 µM [falling, full curve, poor fit].
Turning to `O=C(Nc1ccc(F)cc1)c1ccc(S(=O)(=O)NCC2CCCO2)cc1` (stereo not given), under setting [2], the concentration at half-maximal activity (AC50) was 22.4 µM [rising, single point].
With `CN(Cc1ccccc1)c1ccc(N2C(=O)CCCC2=O)cc1[N+](=O)[O-]`, the half-maximal activity concentration (AC50) was 20 µM [rising, partial curve, poor fit] under setting [1] and 17.8 µM [rising, single point] under setting [2].
For `CCN(CC)S(=O)(=O)c1cccc(C(=O)Nc2ccccc2)c1`, the half-maximal activity concentration (AC50) under setting [2] is 11.2 µM [rising, partial curve].
On to `CCOc1ccc(OCc2ccc(C(=O)Nc3ccc(Cl)cn3)o2)cc1`, for which the AC50 under setting [2] was 14.1 µM [rising, single point].
For `CCc1cc2c(=O)c(-c3nc4ccccc4n3C)coc2c(CN2CCOCC2)c1O`, the AC50 under setting [2] is 10 µM [rising, partial curve, poor fit].
With `CCOc1ccc(N2CC(C(=O)Nc3ccccn3)CC2=O)cc1` (stereo not given), the AC50 is 14.1 µM [rising, partial curve, poor fit] under setting [1] and 2.82 µM [rising, partial curve, poor fit] under setting [2].
For the molecule `O=C(Nc1ccc(Cl)cc1)c1cc(S(=O)(=O)N2CCCc3ccccc32)ccc1F`, the AC50 reads like this: under setting [1], 4.47 µM [falling, partial curve, poor fit]; under setting [2], 0.01 µM [falling, full curve, poor fit].

The values are drawn from PubChem BioAssay AID1487 (National Center for Advancing Translational Sciences (NCATS), 2009).
